Record: PubChem BioAssay AID504786 (Drosophila RNAi Screening Center, 2011)

Test: 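Knock-downs reducing HIF reporter induction by the iron chelator DFO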 (primary screen)
Cells: Drosophila S2 cells with a stable HIF luciferase reporter
Reagents: long dsRNA against Drosophila genes, about 0.2 µg dsRNA per well of a 384-well plate
Timing: three days of knock-down, then 20 h of DFO before reading
Conditions: desferrioxamine (DFO) at 100 µM, an iron chelator that mimics hypoxia, for 20 h
Measurement: 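HIF reporter luminescence in cells given 100 µM DFO for 20 h, using the mouse ldh-a hypoxia-response element, scored as per-plate z-scores; higher means greater loss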
Direction: z-score: higher = stronger loss of HIF reporter signal
In all, the deposit lists about 21,000 reagents; shown is an unselected part of those with a known target gene and a result. 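Primary screen; positive scores mean lost reporter signal, so the sign may be inverted from the usual convention.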 A plus sign joins genes that one reagent is predicted to hit.

Against swa [DRSC18842], the values are z-score, replicate 1 = -0.3; z-score, replicate 2 = -0.4.
For Dgp-1 [DRSC07400], the entry reads z-score, replicate 1 = -0.3; z-score, replicate 2 = -0.5.
For stas [DRSC20104] the deposit lists z-score, replicate 1 = -0.3; z-score, replicate 2 = 0.4.
Silencing of CG6675 [DRSC03735] came out at: z-score, replicate 1 = -0.3; z-score, replicate 2 = -0.4.
Silencing of CG11400 [DRSC06070] resulted in: z-score, replicate 1 = -0.3; z-score, replicate 2 = -0.3.
Knock-down of Act42A [DRSC04835] came out at: z-score, replicate 1 = 0.4; z-score, replicate 2 = 0.7.
CG14421 [DRSC17918] gave z-score, replicate 1 = -0.2; z-score, replicate 2 = 0.1.
For CG7407 [DRSC11824] the deposit lists z-score, replicate 1 = -0.4; z-score, replicate 2 = -0.6.
Against CG12011 [DRSC08219] the deposit lists z-score, replicate 1 = -0.4; z-score, replicate 2 = -0.6.
After knock-down of CG10725 [DRSC09788], the screen gave z-score, replicate 1 = -0.1; z-score, replicate 2 = 0.6.
After knock-down of RhoGEF64C [DRSC08318], the screen gave z-score, replicate 1 = -0.3; z-score, replicate 2 = -0.3.
For RhoGEF64C [DRSC08319], the values are z-score, replicate 1 = -0.2; z-score, replicate 2 = -0.6.
Knock-down of Obp83g [DRSC12269] resulted in: z-score, replicate 1 = -0.3; z-score, replicate 2 = -0.7.
Knock-down of sdt [DRSC17555] resulted in: z-score, replicate 1 = 0.1; z-score, replicate 2 = -0.1.
With knock-down of sdt [DRSC17556], the record shows z-score, replicate 1 = -0.3; z-score, replicate 2 = -0.3.
For sdt [DRSC17860], the entry reads z-score, replicate 1 = -0.2; z-score, replicate 2 = -0.2.
Knock-down of sdt [DRSC17861] gave: z-score, replicate 1 = -0.3; z-score, replicate 2 = -0.3.
After knock-down of sdt [DRSC18022], the record shows z-score, replicate 1 = -0.3; z-score, replicate 2 = -0.8.
After knock-down of sdt [DRSC18025] the results were z-score, replicate 1 = -0.1; z-score, replicate 2 = 0.6.
After knock-down of sdt [DRSC18026], the screen gave z-score, replicate 1 = -0.1; z-score, replicate 2 = 0.6.
Knock-down of sdt [DRSC18027] resulted in: z-score, replicate 1 = -0.2; z-score, replicate 2 = -0.4.
With knock-down of sdt [DRSC18108] the results were z-score, replicate 1 = -0.2; z-score, replicate 2 = -0.5.
With knock-down of stnB + stnA [DRSC20969] the results were z-score, replicate 1 = 0.2; z-score, replicate 2 = -0.2.
stnB + stnA [DRSC21112] scored z-score, replicate 1 = 0.1; z-score, replicate 2 = -0.3.
Knock-down of stnB + stnA [DRSC21113] resulted in: z-score, replicate 1 = -0.3; z-score, replicate 2 = -0.4.

Look-ups from the list:
Value of CG12011 [DRSC08219] in “z-score, replicate 1”: -0.4
For “z-score, replicate 1”, swa [DRSC18842] is entered as -0.3
Result of Act42A [DRSC04835] in “z-score, replicate 1”: 0.4
Under “z-score, replicate 2”, CG6675 [DRSC03735] is entered as -0.4
sdt [DRSC18025], z-score, replicate 1: -0.1
Under “z-score, replicate 1”, CG14421 [DRSC17918] has -0.2

Further reagents follow.
After knock-down of WRNexo [DRSC16278], the record shows z-score, replicate 1 = -0.2; z-score, replicate 2 = -0.3.
After knock-down of CG13492 [DRSC04137], the screen gave z-score, replicate 1 = -0.2; z-score, replicate 2 = -0.5.
After knock-down of ebi [DRSC00816] the results were z-score, replicate 1 = -0.3; z-score, replicate 2 = -0.6.
chk [DRSC04994] gave z-score, replicate 1 = -0.3; z-score, replicate 2 = -0.1.
For CG7432 [DRSC16243] the deposit lists z-score, replicate 1 = 0.1; z-score, replicate 2 = -0.4.
For CG31802 [DRSC02459], the entry reads z-score, replicate 1 = -0.2; z-score, replicate 2 = -0.3.
Silencing of CG32066 [DRSC10652] came out at: z-score, replicate 1 = -0.4; z-score, replicate 2 = -0.5.
With knock-down of CG32066 [DRSC10653], the record shows z-score, replicate 1 = -0.4; z-score, replicate 2 = -0.7.
Against CG1824 [DRSC19796], the entry reads z-score, replicate 1 = -0.2; z-score, replicate 2 = 0.3.
With knock-down of CG14644 [DRSC12230] the results were z-score, replicate 1 = -0.3; z-score, replicate 2 = -0.2.
After knock-down of Hsl [DRSC06028], the record shows z-score, replicate 1 = -0.1; z-score, replicate 2 = -0.1.
For AP-1-2beta [DRSC19336], the entry reads z-score, replicate 1 = -0.9; z-score, replicate 2 = -1.5.
After knock-down of PH4alphaEFB [DRSC14473] the results were z-score, replicate 1 = -0.3; z-score, replicate 2 = -0.8.
PH4alphaEFB [DRSC14950] scored z-score, replicate 1 = -0.6; z-score, replicate 2 = -0.4.
With knock-down of CG13806 [DRSC08341] the results were z-score, replicate 1 = -0.1; z-score, replicate 2 = 2.3.
Depletion of slgA [DRSC20586] came out at: z-score, replicate 1 = -0.4; z-score, replicate 2 = -0.5.
Knock-down of CG14384 [DRSC14842] gave: z-score, replicate 1 = -0.3; z-score, replicate 2 = 0.1.
For yip7 [DRSC11410] the deposit lists z-score, replicate 1 = -0.2; z-score, replicate 2 = 0.
After knock-down of CG18480 [DRSC01957], the screen gave z-score, replicate 1 = -0.1; z-score, replicate 2 = -0.4.
Against Dref [DRSC03319] the deposit lists z-score, replicate 1 = 1.9; z-score, replicate 2 = 0.9.
cold [DRSC00538] showed z-score, replicate 1 = -0.3; z-score, replicate 2 = -0.4.
c-cup [DRSC00458] scored z-score, replicate 1 = -0.1; z-score, replicate 2 = 0.8.
CG3108 [DRSC18280] gave z-score, replicate 1 = -0.3; z-score, replicate 2 = -0.7.
After knock-down of Semp1 [DRSC01874], the screen gave z-score, replicate 1 = -0.3; z-score, replicate 2 = -0.5.
Silencing of eys [DRSC00113] resulted in: z-score, replicate 1 = -0.3; z-score, replicate 2 = 0.1.
eys [DRSC00402] gave z-score, replicate 1 = 0.3; z-score, replicate 2 = 0.3.
eys [DRSC00403] scored z-score, replicate 1 = 0; z-score, replicate 2 = 0.1.
eys [DRSC00695] gave z-score, replicate 1 = -0.2; z-score, replicate 2 = -0.2.
